Source: the supplement of paper PMC6411743
± gives the standard deviation of the averaged measurements. The list shows a part of the results, in another mix than the full data.

Chains of the proteins cited; added tags and fusions are not shown. Lines headed by an entry give the natural chain unless they say otherwise; changes in a name come on top.
UniProt P20336: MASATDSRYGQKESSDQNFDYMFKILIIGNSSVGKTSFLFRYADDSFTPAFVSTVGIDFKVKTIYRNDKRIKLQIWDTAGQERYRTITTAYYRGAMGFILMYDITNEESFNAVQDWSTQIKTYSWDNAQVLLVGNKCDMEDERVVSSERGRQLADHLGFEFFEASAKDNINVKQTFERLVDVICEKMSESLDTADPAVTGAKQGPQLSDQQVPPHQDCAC
UniProt P28749: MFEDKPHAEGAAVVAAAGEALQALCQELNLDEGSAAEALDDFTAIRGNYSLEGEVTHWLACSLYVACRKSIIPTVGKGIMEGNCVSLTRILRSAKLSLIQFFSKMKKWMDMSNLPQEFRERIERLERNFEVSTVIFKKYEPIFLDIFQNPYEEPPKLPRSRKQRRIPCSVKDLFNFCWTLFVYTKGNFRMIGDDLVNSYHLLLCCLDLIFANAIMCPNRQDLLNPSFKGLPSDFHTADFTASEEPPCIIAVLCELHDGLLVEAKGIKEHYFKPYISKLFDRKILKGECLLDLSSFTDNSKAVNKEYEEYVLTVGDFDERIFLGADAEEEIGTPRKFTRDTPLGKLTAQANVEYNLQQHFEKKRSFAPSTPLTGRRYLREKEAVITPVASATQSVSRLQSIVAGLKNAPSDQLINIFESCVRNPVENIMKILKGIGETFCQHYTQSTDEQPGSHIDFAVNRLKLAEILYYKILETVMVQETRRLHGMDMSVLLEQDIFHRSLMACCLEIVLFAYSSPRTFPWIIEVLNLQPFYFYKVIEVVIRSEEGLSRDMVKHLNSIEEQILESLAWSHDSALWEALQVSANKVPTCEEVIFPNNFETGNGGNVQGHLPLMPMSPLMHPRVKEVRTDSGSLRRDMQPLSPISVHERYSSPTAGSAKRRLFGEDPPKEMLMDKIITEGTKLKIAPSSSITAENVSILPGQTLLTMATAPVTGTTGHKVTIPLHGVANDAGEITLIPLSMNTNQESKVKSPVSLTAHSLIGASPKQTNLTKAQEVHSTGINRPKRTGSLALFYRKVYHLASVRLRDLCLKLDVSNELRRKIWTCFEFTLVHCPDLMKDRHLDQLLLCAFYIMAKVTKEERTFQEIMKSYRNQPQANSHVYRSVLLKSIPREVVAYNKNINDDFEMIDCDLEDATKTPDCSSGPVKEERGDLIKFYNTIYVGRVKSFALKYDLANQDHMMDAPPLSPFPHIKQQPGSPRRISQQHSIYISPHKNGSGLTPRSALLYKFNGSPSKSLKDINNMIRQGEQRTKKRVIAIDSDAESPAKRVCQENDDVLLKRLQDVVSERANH
UniProt P35241, whole entry: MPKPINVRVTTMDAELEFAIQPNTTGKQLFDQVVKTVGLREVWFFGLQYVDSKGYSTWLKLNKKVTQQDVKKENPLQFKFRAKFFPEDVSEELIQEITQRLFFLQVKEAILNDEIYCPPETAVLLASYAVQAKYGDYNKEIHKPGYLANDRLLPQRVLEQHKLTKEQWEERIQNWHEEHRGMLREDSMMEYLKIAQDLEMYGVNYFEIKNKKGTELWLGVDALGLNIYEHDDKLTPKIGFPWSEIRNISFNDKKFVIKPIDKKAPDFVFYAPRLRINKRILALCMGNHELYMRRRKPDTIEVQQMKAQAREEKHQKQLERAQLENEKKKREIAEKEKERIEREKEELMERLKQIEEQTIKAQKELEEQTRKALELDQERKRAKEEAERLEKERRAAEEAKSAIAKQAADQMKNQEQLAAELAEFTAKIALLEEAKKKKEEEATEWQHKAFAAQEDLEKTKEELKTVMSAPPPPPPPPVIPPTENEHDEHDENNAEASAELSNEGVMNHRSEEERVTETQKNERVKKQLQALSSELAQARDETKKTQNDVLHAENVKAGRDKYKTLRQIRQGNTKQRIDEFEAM
UniProt P16949: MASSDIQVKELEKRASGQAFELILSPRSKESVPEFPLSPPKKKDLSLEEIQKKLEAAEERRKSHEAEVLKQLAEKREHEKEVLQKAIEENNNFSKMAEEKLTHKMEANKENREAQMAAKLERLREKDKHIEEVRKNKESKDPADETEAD
UniProt P19338, whole entry: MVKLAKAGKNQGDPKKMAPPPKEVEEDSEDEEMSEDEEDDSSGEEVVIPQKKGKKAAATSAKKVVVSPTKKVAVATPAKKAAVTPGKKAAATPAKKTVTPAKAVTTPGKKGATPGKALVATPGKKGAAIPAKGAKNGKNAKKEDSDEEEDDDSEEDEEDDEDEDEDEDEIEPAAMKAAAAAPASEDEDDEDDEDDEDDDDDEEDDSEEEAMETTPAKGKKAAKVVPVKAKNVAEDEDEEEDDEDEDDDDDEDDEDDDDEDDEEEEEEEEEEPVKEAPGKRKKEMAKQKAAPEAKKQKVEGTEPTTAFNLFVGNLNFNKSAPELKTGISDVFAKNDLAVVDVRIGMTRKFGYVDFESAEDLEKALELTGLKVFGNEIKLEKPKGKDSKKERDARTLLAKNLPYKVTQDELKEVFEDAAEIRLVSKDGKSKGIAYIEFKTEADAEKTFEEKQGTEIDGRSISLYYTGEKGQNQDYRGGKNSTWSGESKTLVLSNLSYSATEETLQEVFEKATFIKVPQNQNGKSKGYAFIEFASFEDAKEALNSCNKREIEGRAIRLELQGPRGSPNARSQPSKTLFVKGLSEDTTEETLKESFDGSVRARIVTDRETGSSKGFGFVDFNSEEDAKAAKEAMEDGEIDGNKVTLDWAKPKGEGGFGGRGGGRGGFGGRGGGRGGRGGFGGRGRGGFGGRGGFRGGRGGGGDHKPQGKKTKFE
UniProt P27105: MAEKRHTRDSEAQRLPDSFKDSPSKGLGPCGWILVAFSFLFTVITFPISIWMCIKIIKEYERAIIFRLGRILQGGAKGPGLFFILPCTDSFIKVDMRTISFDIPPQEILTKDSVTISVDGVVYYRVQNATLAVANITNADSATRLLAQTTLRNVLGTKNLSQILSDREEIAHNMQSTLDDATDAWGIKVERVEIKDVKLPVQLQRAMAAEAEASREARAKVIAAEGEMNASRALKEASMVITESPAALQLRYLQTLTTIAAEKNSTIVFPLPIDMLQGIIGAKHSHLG
UniProt P35250, whole entry: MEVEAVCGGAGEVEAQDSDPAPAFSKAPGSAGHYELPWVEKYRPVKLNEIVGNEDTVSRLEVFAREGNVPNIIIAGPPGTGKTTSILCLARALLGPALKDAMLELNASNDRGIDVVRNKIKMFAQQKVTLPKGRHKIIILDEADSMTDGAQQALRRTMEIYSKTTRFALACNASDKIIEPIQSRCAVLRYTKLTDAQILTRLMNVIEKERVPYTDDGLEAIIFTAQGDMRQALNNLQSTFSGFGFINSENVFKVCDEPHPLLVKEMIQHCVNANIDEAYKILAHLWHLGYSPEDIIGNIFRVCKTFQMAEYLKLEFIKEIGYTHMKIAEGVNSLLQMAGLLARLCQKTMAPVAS
UniProt P34932: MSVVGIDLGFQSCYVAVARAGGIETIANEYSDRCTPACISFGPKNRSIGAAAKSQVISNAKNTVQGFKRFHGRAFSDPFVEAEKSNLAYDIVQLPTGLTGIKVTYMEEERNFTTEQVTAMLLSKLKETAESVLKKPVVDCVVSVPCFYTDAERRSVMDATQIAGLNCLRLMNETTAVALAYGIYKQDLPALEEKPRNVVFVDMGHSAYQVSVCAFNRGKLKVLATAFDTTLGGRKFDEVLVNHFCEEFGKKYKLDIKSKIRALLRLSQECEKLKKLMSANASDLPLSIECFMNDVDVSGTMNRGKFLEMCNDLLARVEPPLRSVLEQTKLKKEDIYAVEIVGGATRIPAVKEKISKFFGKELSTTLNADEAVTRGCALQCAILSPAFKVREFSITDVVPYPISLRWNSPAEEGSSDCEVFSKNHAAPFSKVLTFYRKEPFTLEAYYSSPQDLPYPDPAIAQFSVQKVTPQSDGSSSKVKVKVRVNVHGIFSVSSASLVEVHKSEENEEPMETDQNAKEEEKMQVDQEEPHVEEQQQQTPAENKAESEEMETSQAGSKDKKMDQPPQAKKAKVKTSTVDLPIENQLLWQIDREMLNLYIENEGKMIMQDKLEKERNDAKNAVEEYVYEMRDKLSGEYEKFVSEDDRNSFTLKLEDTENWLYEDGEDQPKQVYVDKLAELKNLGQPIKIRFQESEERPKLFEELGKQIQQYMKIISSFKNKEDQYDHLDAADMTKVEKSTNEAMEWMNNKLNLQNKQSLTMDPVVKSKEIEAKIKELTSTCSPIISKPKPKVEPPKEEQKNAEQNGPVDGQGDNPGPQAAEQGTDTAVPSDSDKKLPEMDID
UniProt P26010: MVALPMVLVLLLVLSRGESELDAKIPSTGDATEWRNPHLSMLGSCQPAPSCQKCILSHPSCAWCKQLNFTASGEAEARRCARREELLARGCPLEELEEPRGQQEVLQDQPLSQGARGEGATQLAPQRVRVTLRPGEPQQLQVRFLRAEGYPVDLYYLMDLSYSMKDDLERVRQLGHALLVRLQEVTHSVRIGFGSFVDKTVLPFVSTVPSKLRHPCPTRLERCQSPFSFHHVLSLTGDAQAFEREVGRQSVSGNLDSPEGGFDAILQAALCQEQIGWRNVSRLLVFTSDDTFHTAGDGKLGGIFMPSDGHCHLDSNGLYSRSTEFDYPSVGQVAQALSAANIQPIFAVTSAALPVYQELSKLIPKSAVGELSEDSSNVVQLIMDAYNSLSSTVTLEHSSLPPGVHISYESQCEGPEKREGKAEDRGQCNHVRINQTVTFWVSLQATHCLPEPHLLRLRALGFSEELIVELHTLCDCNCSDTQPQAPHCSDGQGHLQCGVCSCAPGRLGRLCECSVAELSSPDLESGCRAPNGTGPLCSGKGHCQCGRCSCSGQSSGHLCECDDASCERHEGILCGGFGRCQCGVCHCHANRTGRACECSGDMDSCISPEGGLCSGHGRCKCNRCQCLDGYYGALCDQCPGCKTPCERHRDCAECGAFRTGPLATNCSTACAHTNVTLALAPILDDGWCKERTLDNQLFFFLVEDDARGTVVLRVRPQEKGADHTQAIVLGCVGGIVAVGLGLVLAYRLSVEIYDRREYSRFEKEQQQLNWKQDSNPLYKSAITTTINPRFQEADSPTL
UniProt P17152: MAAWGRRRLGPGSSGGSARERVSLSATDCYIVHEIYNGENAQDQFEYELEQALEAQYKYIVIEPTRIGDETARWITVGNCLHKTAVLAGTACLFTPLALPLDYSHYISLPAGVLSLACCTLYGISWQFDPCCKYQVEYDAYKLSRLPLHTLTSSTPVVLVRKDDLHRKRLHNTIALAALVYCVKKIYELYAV
UniProt P31153, whole entry, looked up: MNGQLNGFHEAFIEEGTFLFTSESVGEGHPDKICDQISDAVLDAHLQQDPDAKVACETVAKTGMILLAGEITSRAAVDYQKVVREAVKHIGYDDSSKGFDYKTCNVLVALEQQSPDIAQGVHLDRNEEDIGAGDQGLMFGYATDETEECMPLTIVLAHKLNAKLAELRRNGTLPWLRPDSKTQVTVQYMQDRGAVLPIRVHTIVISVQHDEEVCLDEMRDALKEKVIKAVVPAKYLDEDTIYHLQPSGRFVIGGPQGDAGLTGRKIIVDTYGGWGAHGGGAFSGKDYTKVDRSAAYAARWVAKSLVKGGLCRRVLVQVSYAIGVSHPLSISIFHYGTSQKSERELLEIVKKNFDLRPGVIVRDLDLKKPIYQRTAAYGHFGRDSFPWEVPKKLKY
UniProt P22059, whole entry: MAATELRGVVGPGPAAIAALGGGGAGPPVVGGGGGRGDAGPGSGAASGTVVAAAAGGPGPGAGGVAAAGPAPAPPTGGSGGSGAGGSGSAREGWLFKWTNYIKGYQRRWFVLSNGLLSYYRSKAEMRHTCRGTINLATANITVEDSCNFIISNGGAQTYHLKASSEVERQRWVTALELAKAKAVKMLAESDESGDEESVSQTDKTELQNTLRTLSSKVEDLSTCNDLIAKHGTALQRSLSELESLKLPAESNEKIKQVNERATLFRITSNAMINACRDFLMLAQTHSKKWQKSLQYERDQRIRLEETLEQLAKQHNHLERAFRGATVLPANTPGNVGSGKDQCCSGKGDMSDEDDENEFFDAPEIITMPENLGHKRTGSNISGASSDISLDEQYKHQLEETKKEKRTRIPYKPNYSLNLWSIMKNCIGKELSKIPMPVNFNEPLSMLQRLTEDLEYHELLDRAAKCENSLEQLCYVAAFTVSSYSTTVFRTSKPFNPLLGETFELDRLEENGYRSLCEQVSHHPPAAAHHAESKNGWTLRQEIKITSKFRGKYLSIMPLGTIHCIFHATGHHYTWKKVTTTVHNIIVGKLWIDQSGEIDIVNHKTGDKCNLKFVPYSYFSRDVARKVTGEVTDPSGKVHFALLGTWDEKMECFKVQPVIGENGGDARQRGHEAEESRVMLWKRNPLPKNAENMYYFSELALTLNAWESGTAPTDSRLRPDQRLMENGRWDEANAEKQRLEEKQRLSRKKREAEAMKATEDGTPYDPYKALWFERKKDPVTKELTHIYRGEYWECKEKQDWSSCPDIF

Compound: Nc1ncnc2c1ncn2[C@@H]1O[C@H](COP(=O)(O)OP(=O)(O)OP(=O)(O)O)[C@@H](O)[C@H]1O [adenosine triphosphate]
Assay: NP40-soluble protein abundance relative to vehicle (solubility fold change) (ratio); higher = more soluble protein in presence of ATP
How it was run: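 Eight concentrations, 0.1 to 10 mM, were tested on Jurkat crude lysate for 10 min at room temperature and then 3 min at 37 °C, in three independent experiments. The lysate was solubilised with 0.8% NP40 and benzonase, ultracentrifuged, and the supernatant TMT-labelled for LC-MS/MS. Each value is the fold change against the detergent-processed vehicle in its own replicate, from vsn-normalised intensities.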

Target	NP40-soluble protein abundance (concentration: 1mM)	NP40-soluble protein abundance (concentration: 2mM)	NP40-soluble protein abundance (concentration: 4mM)	NP40-soluble protein abundance (concentration: 6mM)	NP40-soluble protein abundance (concentration: 8mM)	NP40-soluble protein abundance (concentration: 10mM)
UniProt P23610	0.924 ± 0.015	0.937 ± 0.015	0.977 ± 0.078	0.938 ± 0.054	0.96 ± 0.066	0.885 ± 0.031
UniProt P31942 and related entries	1.03 ± 0.011	0.976 ± 0.065	0.985 ± 0.041	1.02 ± 0.13	1.03 ± 0.089	1.05 ± 0.091
RAB3A (UniProt P20336)	0.884 ± 0.051	0.909 ± 0.029	0.938 ± 0.053	0.913 ± 0.081	0.923 ± 0.059	0.906 ± 0.06
UniProt P23229 and related entries	0.947 ± 0.021	1.02 ± 0.021	1 ± 0.026	1.01 ± 0.042	0.966 ± 0.021	0.987 ± 0.023
RBL1 (UniProt P28749)	1.07 ± 0.2	1.109 ± 0.0067	1.05 ± 0.1	1.05 ± 0.09	1.02 ± 0.061	1.02 ± 0.11
SDHB (UniProt P21912)	0.9636 ± 0.0081	0.971 ± 0.026	0.947 ± 0.012	0.957 ± 0.011	0.943 ± 0.022	0.909 ± 0.028
UniProt P32121 and related entries	1.01 ± 0.047	1.03 ± 0.053	1.02 ± 0.057	0.979 ± 0.13	0.991 ± 0.03	1.03 ± 0.011
WEE1 (UniProt P30291)	1.14 ± 0.041	1.11 ± 0.029	1.15 ± 0.069	1.16 ± 0.055	1.13 ± 0.044	1.1 ± 0.069
UniProt P35241 and related entries	1 ± 0.038	0.963 ± 0.028	0.9339 ± 0.0043	0.985 ± 0.026	0.922 ± 0.028	0.932 ± 0.031
UniProt P32969 and related entries	0.976 ± 0.016	0.92 ± 0.09	0.884 ± 0.098	0.804 ± 0.13	0.595 ± 0.1	0.954 ± 0.094
CHML (UniProt P26374)	0.949 ± 0.02	1.02 ± 0.062	0.989 ± 0.067	0.972 ± 0.077	0.948 ± 0.045	0.948 ± 0.057
STMN1 (UniProt P16949)	0.943 ± 0.1	0.891 ± 0.021	0.882 ± 0.024	0.944 ± 0.04	0.872 ± 0.019	0.852 ± 0.097
RPL13 (UniProt P26373)	0.934 ± 0.11	0.901 ± 0.2	0.844 ± 0.18	0.798 ± 0.21	0.687 ± 0.13	0.888 ± 0.16
UniProt P22001	0.876 ± 0.11	0.955 ± 0.07	0.969 ± 0.12	0.944 ± 0.05	0.848 ± 0.019	0.862 ± 0.11
NCL (UniProt P19338)	0.627 ± 0.062	0.599 ± 0.04	0.578 ± 0.033	0.711 ± 0.023	0.736 ± 0.028	0.826 ± 0.049
UniProt P27105 and related entries	1.12 ± 0.14	1.11 ± 0.22	1.07 ± 0.18	1.18 ± 0.25	1.06 ± 0.24	1.06 ± 0.2
UniProt P17041	0.9629 ± 0.00097	1 ± 0.054	0.968 ± 0.021	0.873 ± 0.049	0.867 ± 0.022	0.903 ± 0.04
RFC2 (UniProt P35250)	1.23 ± 0.034	1.28 ± 0.04	1.3 ± 0.03	1.33 ± 0.046	1.34 ± 0.049	1.34 ± 0.073
UniProt P35221 and related entries	0.953 ± 0.046	0.992 ± 0.053	0.983 ± 0.056	0.991 ± 0.05	0.951 ± 0.031	0.935 ± 0.022
HSPA4 (UniProt P34932)	0.96 ± 0.012	0.9528 ± 0.0094	0.9223 ± 0.0032	0.949 ± 0.017	0.913 ± 0.014	0.925 ± 0.026
UniProt P26010 and related entries	0.923 ± 0.12	0.942 ± 0.099	0.959 ± 0.12	0.955 ± 0.08	0.89 ± 0.081	0.94 ± 0.096
POLR2C (UniProt P19387)	1.05 ± 0.029	1.04 ± 0.044	1.05 ± 0.036	1.08 ± 0.086	1.06 ± 0.05	1.06 ± 0.051
UniProt P19793 and related entries	0.881 ± 0.031	1.01 ± 0.11	0.932 ± 0.074	0.943 ± 0.088	0.8555 ± 0.0076	0.978 ± 0.17
UniProt P20810-10|P20810-6	0.958 ± 0.075	0.956 ± 0.029	0.92 ± 0.019	0.986 ± 0.042	0.901 ± 0.032	0.9053 ± 0.0077
TMEM11 (UniProt P17152)	0.979 ± 0.13	0.931 ± 0.13	0.915 ± 0.093	0.834 ± 0.11	0.95 ± 0.065	0.911 ± 0.11
ABCD3 (UniProt P28288)	1.09 ± 0.14	1.08 ± 0.13	1.07 ± 0.096	0.975 ± 0.11	1.11 ± 0.067	1.06 ± 0.073
UniProt P27635 and related entries	0.924 ± 0.031	0.909 ± 0.083	0.911 ± 0.052	0.831 ± 0.088	0.786 ± 0.076	0.964 ± 0.056
MAT2A (UniProt P31153)	0.981 ± 0.054	0.953 ± 0.047	0.932 ± 0.028	0.942 ± 0.071	0.955 ± 0.028	0.938 ± 0.062
OSBP (UniProt P22059)	0.989 ± 0.021	0.958 ± 0.043	0.954 ± 0.05	0.957 ± 0.054	0.963 ± 0.043	0.931 ± 0.044
UniProt P29016	0.904 ± 0.11	0.997 ± 0.028	0.984 ± 0.024	0.955 ± 0.076	0.941 ± 0.047	0.905 ± 0.059

Complete entries from above:
RAB3A (UniProt P20336) is listed with NP40-soluble protein abundance (concentration: 1mM): 0.884 ± 0.051; NP40-soluble protein abundance (concentration: 2mM): 0.909 ± 0.029; NP40-soluble protein abundance (concentration: 4mM): 0.938 ± 0.053; NP40-soluble protein abundance (concentration: 6mM): 0.913 ± 0.081; NP40-soluble protein abundance (concentration: 8mM): 0.923 ± 0.059; NP40-soluble protein abundance (concentration: 10mM): 0.906 ± 0.06
UniProt P23229 and related entries is listed with NP40-soluble protein abundance (concentration: 1mM): 0.947 ± 0.021; NP40-soluble protein abundance (concentration: 2mM): 1.02 ± 0.021; NP40-soluble protein abundance (concentration: 4mM): 1 ± 0.026; NP40-soluble protein abundance (concentration: 6mM): 1.01 ± 0.042; NP40-soluble protein abundance (concentration: 8mM): 0.966 ± 0.021; NP40-soluble protein abundance (concentration: 10mM): 0.987 ± 0.023
